Earlier results as cited in patent US20160184271A1, “Amino Acid Composition for Use in the Treatment of a PDD” (N.V. Nutricia, priority 2013, published 2016).
For at least one compound, name, drawing or mass did not settle the structure.

Test system: Tsc2+/− mouse model of tuberous sclerosis
Conditions: reported by Ehninger et al. 2008, Nat Med 14:843-8; cited from earlier work

CO[C@H]1C[C@@H]2CC[C@@H](C)[C@@](O)(O2)C(=O)C(=O)N2CCCC[C@H]2C(=O)O[C@H]([C@H](C)C[C@@H]2CC[C@@H](O)[C@H](OC)C2)CC(=O)[C@H](C)/C=C(\C)[C@@H](O)[C@@H](OC)C(=O)[C@H](C)C[C@H](C)/C=C/C=C/C=C/1C [rapamycin]
treatment of symptoms of a PDD or neurogenetic syndrome with a PDD: effective
